Laboratory results reported in article PMC4823097.
Substitutions are numbered along the chain they refer to. Results are given in words; binding and its absence hold for the method and conditions named. Binding seen in cells or lysates may run through a third protein. Some binding calls cover weakened binding; strength is not graded here. For part of these data: Tags and fused reporters may be left off the sequences shown. Each block holds one molecule with its values, some of them ahead of it.

By UniProt entry, the sequences of proteins in these tests, tags left out.
UniProt O60566: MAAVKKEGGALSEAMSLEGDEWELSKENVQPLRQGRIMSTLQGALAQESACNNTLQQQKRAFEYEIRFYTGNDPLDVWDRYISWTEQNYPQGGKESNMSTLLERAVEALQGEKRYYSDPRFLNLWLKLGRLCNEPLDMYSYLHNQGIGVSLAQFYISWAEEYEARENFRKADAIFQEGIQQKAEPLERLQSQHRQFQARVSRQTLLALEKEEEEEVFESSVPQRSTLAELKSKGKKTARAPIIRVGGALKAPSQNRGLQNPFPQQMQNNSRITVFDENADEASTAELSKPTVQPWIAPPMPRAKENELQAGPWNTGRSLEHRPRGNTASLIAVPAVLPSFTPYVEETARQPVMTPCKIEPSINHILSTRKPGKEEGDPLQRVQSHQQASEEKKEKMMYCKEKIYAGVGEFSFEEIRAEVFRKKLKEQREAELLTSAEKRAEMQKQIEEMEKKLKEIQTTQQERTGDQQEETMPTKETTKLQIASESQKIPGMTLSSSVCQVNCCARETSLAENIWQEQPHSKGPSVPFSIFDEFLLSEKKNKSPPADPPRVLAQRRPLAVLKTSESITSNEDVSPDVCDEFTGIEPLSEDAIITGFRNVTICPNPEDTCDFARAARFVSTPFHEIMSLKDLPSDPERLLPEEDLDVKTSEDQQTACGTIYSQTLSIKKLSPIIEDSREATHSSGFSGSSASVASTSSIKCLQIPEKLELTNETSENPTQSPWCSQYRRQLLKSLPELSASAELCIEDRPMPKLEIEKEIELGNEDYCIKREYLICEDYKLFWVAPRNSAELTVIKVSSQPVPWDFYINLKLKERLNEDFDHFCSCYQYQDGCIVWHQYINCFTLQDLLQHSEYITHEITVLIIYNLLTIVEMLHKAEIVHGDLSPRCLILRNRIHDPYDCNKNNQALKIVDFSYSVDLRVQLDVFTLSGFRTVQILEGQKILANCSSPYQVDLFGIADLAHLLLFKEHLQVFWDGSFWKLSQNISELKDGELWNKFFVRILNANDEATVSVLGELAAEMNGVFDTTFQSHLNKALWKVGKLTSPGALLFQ

What was measured:
[1] = biological target: T1, Myc-tagged wild-type Mps1 (human) (UniProt P33981); assay: co-IP; HeLa cells transfected with Myc-Mps1-wt, Myc-Mps1-mut or pcDNA3 vector for 48 h, then nocodazole for 16 h; native lysates immunoprecipitated with antibody to Myc; blotted for Myc-tag and BubR1
T1 sequence: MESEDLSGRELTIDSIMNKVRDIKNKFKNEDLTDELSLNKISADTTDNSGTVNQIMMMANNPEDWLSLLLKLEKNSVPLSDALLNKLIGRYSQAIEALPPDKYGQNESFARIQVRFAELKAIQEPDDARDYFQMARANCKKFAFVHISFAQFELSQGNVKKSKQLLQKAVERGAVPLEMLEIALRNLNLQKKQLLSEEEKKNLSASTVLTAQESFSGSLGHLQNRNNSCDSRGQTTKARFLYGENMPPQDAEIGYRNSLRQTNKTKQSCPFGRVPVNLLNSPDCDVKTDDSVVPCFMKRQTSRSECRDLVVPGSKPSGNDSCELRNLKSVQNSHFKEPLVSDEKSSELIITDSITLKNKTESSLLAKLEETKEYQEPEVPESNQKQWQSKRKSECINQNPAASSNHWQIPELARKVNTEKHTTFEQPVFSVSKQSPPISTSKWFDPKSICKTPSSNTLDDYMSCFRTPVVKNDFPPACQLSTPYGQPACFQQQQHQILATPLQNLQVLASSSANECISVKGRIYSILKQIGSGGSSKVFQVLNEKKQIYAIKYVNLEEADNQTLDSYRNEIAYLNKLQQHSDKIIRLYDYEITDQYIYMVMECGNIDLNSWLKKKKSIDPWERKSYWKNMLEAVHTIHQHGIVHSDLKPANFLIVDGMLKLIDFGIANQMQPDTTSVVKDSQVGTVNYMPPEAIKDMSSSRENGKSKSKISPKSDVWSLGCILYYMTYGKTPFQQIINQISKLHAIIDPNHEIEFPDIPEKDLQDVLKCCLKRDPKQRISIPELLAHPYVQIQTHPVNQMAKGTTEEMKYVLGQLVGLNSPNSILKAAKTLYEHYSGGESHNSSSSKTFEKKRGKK

[2] = biological target: T2, Myc-tagged SUMO-resistant 4R mutant of Mps1 (human) (UniProt P33981); assay: as above
T2 sequence: T1 sequence with K71R, K287R, K367R, K471R

[3] = biological target: BubR1 (human (endogenous in HeLa)) (UniProt O60566); assay: co-IP; HeLa cells asynchronous or treated with nocodazole for 16 h; native lysates immunoprecipitated with antibody to BubR1 (or Mps1, or control IgG), protein G-agarose, 4°C overnight; blotted for Mps1

- binding [1]: binds
- binding [2]: binds
Molecule: BubR1 (from UniProt O60566 1-1050)

- binding [3]: binds
B1: Mps1 (mono-polar spindle 1) (protein, UniProt P33981-2 1-856)
chain: T1 sequence
